Laboratory results from patent US9113631B2, “1,3-diaryl-substituted heterocyclic pesticides” (E I DU PONT DE NEMOURS AND COMPANY, priority 2011, dated 2015).
Some of these results come from one statement about several compounds together. At least one compound was matched to its structure with a doubt left.

How the values were obtained:
Type in all cases: in vivo
[1] = test system: potato leafhopper (Empoasca fabae); test: Test F: control of potato leafhopper on Soleil bean plant, contact and/or systemic; conditions: adults on Soleil bean plant, 6 days, 24° C.
Procedure: Test compounds were formulated using a solution containing 10% acetone, 90% water and 300 ppm X-77® Spreader Lo-Foam Formula non-ionic surfactant containing alkylarylpolyoxyethylene, free fatty acids, glycols and isopropanol (Loveland Industries, Inc. Greeley, Colo., USA). The formulated compounds were applied in 1 mL of liquid through a SUJ2 atomizer nozzle with 1/8 JJ custom body (Spraying Systems Co., Wheaton, Ill., USA) positioned 1.27 cm (0.5 inches) above the top of each test unit. Test compounds were sprayed at 250 ppm and/or 50 ppm, and replicated three times. After spraying of the formulated test compound, each test unit was allowed to dry for 1 h and then a black, screened cap was placed on top. The test units were held for 6 days in a growth chamber at 25° C. and 70% relative humidity. Plant feeding damage was then visually assessed based on foliage consumed.
For evaluating control of potato leafhopper (Empoasca fabae) through contact and/or systemic means, the test unit consisted of a small open container with a 5-6-day-old Soleil bean plant (primary leaves emerged) inside. White sand was added to the top of the soil and one of the primary leaves was excised prior to application.
Test compounds were formulated and sprayed at 250 ppm and/or 50 ppm, and the tests were replicated three times as described for Test A. After spraying, the test units were allowed to dry for 1 h before they were post-infested with 5 potato leafhoppers (18-21-day-old adults). A black, screened cap was placed on the top of each test unit, and the test units were held for 6 days in a growth chamber at 24° C. and 70% relative humidity. Each test unit was then visually assessed for insect mortality.

[2] = test system: diamondback moth (Plutella xylostella); test: Test A: control of diamondback moth on radish plant, foliar spray; conditions: neonate larvae on radish plant, 6 days, 25° C., visually assessed
[3] = test system: fall armyworm (Spodoptera frugiperda); test: Test B: control of fall armyworm on maize plant, foliar spray; conditions: 1-day-old larvae on maize plant, 25° C., visually rated

SMILES	control efficacy, very good to excellent: mortality ([1]; sprayed at 250 ppm)	control efficacy, very good to excellent: feeding damage (40% or less feeding damage and/or 100% mortality) ([2]; sprayed at 50 ppm)	control efficacy, very good to excellent: feeding damage (40% or less feeding damage and/or 100% mortality) ([3]; sprayed at 50 ppm)	also measured
CC(=O)NC1(C#N)CCN(Cc2cn(-c3ccc(F)c(Cl)c3)nc2-c2ccc(F)cc2F)CC1 [Compound 647]	≥ 80%			control efficacy, very good to excellent: mortality ([1]; sprayed at 50 ppm): ≥ 80%
COC(=O)C1(C)CCN(Cc2cn(-c3ccc(Cl)cn3)nc2-c2ccc(F)cc2F)CC1 [Compound 826]		≤ 40%	≤ 40%	
COC(=O)C1CCN(Cc2cn(-c3ccc(C)cc3)nc2-c2ccccc2F)CC1 [Compound 570]	≥ 80%			
N#CC1CCN(Cc2cn(-c3ccc(Cl)c(Cl)c3)nc2-c2cccnc2F)CC1 [Compound 566]		≤ 40%	≤ 40%	
N#CC1CCN(Cc2cn(-c3ccc(Cl)cn3)nc2-c2ccc(F)cc2)CC1 [Compound 895]		≤ 40%	≤ 40%	
CC(=O)NCC1CCN(Cc2cn(-c3ccc(C)c(Cl)c3)nc2-c2ccccc2F)CC1 [Compound 127]	≥ 80%			
Cn1cnnc1C1CCN(Cc2cn(-c3ccc(F)c(Cl)c3)nc2-c2c(F)cccc2F)CC1 [Compound 837]	≥ 80%			
N#CC1CCN(Cc2cn(-c3ccc(Cl)cn3)nc2-c2ccccc2F)CC1 [Compound 807]		≤ 40%	≤ 40%	
CCOC(=O)NC1CCN(Cc2cn(-c3ccc(C(F)(F)F)cc3)nc2-c2ccccc2F)CC1 [Compound 49]		≤ 40%	≤ 40%	control efficacy, very good to excellent: feeding damage (40% or less feeding damage and/or 100% mortality) ([2]; sprayed at 250 ppm): ≤ 40%
N#CCN1CCN(Cc2cn(-c3ccc(F)c(Cl)c3)nc2-c2c(F)cccc2F)CC1 [Compound 670]	≥ 80%			
CC(C)(C)OC(=O)NC1CCN(Cc2cn(-c3ccc(Cl)c(Cl)c3)nc2-c2ccccc2F)CC1 [Compound 114]	≥ 80%			
O=C(N[C@H]1CCN(Cc2cn(-c3ccc(Cl)c(Cl)c3)nc2-c2ccc(F)cc2)C1)C1CC1(F)F (stereo partly shown) [Compound 901]		≤ 40%	≤ 40%	
N#CC1CCN(Cc2cn(-c3ccc(Br)cn3)nc2-c2ccc(F)cc2)CC1 [Compound 897]		≤ 40%	≤ 40%	
N#CC1CCN(Cc2cn(-c3ccc4ncccc4c3)nc2-c2ccccc2F)CC1 [Compound 858]		≤ 40%	≤ 40%	
Cc1cccc(-n2cc(CN3CCC(C#N)CC3)c(-c3ccccc3C)n2)c1 [Compound 517]		≤ 40%	≤ 40%	
O=C1CCC2(CCN(Cc3cn(-c4ccc(F)c(Cl)c4)nc3-c3ccccc3F)CC2)N1 [Compound 776]		≤ 40%		control efficacy, very good to excellent: feeding damage (40% or less feeding damage and/or 100% mortality) ([3]; sprayed at 250 ppm): ≤ 40%
N#CC1CCN(Cc2cn(-c3ccc(F)c(Cl)c3)nc2-c2ccc(F)cc2F)CC1 [Compound 583]		≤ 40%	≤ 40%	
O=C(N[C@H]1CCN(Cc2cn(-c3ccc(Cl)c(Cl)c3)nc2-c2cccc(F)c2)C1)C1CC1 [Compound 870]		≤ 40%	≤ 40%	
N#CC1CCN(Cc2cn(-c3cccc(Cl)c3)nc2-c2ccccc2F)CC1 [Compound 87]		≤ 40%	≤ 40%	
CC(=O)NCC1CCN(Cc2cn(-c3ccc(F)c(F)c3)nc2-c2ccccc2F)CC1 [Compound 122]	≥ 80%			
N#CC1CCN(Cc2cn(-c3ccc(-c4ccccc4F)cc3)nc2-c2c(F)cc(F)cc2F)CC1 [Compound 778]		≤ 40%	≤ 40%	control efficacy, very good to excellent: feeding damage (40% or less feeding damage and/or 100% mortality) ([3]; sprayed at 250 ppm): ≤ 40%
O=C1OCCN1C1CCN(Cc2cn(-c3ccc(F)c(Cl)c3)nc2-c2ccccc2F)CC1 [Compound 744]	≥ 80%			control efficacy, very good to excellent: mortality ([1]; sprayed at 50 ppm): ≥ 80%
